Measurements taken from article PMC9396411.
These are yes or no findings as the source states them, for the method shown. Binding seen in cells or lysates may run through a third protein. Some results given as binding are weak or reduced against the parent protein; the word gives no strength.

By UniProt entry, the sequences of proteins in these tests, tags left out. Residues count along the entry.
UniProt P39688: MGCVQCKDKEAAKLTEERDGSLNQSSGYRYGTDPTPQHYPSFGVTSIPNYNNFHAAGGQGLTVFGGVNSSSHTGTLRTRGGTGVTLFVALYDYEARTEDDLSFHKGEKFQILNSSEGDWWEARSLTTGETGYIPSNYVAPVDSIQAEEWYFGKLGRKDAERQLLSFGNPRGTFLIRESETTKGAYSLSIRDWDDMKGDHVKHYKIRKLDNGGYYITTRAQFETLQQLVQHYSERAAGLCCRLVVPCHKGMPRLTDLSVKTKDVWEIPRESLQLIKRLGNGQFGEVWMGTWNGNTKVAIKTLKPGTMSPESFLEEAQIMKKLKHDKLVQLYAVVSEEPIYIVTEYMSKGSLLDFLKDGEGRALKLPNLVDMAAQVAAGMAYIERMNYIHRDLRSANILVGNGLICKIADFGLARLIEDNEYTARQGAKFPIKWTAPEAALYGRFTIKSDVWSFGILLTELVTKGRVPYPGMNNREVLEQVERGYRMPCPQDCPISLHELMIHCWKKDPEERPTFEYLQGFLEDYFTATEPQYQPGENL
UniProt Q08509: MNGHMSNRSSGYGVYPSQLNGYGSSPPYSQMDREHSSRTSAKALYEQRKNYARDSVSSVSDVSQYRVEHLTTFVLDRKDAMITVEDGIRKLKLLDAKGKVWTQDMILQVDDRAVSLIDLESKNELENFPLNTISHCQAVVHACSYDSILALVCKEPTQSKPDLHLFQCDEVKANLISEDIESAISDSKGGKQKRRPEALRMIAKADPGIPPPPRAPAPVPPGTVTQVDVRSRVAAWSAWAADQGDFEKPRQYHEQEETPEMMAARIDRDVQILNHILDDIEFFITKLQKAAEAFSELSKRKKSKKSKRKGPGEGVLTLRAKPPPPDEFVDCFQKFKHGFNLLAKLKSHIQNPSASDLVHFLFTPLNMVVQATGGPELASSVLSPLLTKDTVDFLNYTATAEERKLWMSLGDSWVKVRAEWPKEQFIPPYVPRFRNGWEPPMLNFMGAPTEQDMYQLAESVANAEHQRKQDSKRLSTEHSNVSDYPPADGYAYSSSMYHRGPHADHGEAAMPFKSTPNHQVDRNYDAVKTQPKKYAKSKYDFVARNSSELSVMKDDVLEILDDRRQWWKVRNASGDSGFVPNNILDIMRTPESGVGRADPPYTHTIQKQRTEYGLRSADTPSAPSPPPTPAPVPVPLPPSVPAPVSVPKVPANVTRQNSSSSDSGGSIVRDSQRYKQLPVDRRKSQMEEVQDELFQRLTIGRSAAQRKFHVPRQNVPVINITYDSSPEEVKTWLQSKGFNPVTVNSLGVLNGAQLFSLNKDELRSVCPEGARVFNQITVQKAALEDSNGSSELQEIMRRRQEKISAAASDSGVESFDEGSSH
UniProt P07356: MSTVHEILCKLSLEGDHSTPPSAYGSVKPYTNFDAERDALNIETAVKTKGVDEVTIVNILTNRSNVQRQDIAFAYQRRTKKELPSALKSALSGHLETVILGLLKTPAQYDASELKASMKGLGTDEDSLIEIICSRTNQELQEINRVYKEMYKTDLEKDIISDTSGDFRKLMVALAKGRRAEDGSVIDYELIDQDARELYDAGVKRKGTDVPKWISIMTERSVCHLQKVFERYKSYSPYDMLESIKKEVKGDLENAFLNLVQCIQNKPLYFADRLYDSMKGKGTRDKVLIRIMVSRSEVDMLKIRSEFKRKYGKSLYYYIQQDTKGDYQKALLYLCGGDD
UniProt Q9JLB9, residues 58-549: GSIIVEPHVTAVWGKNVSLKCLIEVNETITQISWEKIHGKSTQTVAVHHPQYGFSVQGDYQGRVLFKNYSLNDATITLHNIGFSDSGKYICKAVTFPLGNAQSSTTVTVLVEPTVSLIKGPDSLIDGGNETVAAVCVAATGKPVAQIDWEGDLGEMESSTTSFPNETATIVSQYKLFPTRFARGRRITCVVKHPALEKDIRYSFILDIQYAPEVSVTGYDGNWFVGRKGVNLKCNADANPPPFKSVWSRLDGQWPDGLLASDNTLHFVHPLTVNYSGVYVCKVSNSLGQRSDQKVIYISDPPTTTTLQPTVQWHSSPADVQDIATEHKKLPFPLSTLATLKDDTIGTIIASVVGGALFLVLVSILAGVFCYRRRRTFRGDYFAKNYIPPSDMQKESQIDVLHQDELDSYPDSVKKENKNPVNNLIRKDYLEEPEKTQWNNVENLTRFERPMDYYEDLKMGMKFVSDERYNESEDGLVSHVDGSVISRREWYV
UniProt Q02248: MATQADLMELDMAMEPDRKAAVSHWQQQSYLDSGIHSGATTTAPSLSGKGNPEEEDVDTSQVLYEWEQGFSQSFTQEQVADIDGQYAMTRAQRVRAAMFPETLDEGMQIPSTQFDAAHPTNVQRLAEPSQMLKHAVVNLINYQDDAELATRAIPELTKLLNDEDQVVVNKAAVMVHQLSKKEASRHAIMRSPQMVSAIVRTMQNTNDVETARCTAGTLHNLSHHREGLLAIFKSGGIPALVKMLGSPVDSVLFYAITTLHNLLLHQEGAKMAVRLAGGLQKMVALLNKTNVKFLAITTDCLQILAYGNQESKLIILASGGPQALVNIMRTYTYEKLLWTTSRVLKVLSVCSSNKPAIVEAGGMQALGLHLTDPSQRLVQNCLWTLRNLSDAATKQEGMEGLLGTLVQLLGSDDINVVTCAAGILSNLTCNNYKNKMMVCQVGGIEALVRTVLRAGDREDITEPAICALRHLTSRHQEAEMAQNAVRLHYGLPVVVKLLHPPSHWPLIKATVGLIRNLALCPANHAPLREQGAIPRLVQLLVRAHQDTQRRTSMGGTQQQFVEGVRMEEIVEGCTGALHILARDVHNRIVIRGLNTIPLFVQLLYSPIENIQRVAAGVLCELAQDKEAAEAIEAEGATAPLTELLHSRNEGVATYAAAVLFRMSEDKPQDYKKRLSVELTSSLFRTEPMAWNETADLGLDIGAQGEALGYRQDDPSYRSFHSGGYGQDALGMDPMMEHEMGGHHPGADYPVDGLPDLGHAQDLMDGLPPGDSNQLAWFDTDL

B1: CAR (protein, UniProt P97792 20-365)
chain: LSITTPEQRIEKAKGETAYLPCKFTLSPEDQGPLDIEWLISPSDNQIVDQVIILYSGDKIYDNYYPDLKGRVHFTSNDVKSGDASINVTNLQLSDIGTYQCKVKKAPGVANKKFLLTVLVKPSGTRCFVDGSEEIGNDFKLKCEPKEGSLPLQFEWQKLSDSQTMPTPWLAEMTSPVISVKNASSEYSGTYSCTVQNRVGSDQCMLRLDVVPPSNRAGTIAGAVIGTLLALVLIGAILFCCHRKRREEKYEKEVHHDIREDVPPPKSRTSTARSYIGSNHSSLGSMSPSNMEGYSKTQYNQVPSEDFERAPQSPTLAPAKVAAPNLSRMGAVPVMIPAQSKDGSIV
B2: occludin (protein, UniProt Q61146 1-521)
chain: MSVRPFESPPPYRPDEFKPNHYAPSNDMYGGEMHVRPMLSQPAYSFYPEDEILHFYKWTSPPGVIRILSMLIIVMCIAIFACVASTLAWDRGYGTGLFGGSLNYPYSGFGYGGGYGGGYGGYGYGYGGYTDPRAAKGFLLAMAAFCFIASLVIFVTSVIRSGMSRTRRYYLIVIIVSAILGIMVFIATIVYIMGVNPTAQASGSMYGSQIYMICNQFYTPGGTGLYVDQYLYHYCVVDPQEAIAIVLGFMIIVAFALIIFFAVKTRRKMDRYDKSNILWDKEHIYDEQPPNVEEWVKNVSAGTQDMPPPPSDYAERVDSPMAYSSNGKVNGKRSYPESFYKSTPLVPEVAQEIPLTLSVDDFRQPRYSSNGNLETPSKRAPTKGKAGKGKRTDPDHYETDYTTGGESCEELEEDWVREYPPITSDQQRQLYKRNFDAGLQEYKSLQAELDDVNKELSRLDKELDDYREESEEYMAAADEYNRLKQVKGSADYKSKRNYCKQLKSKLSHIKRMVGDYDRRKP

target: FYN (mouse (endogenous in testis)) (UniProt P39688); experiment: co-IP; precleared mouse testis lysate (~800 µg total protein) with 2 µg antibody (anti-FYN IgG) overnight at 4°C, Protein A/G plus-agarose 6 h, washed with IP lysis buffer, immunoblot; negative control normal rabbit IgG; untreated adult mice, and for Arp3 also mice 6, 16, 24 and 48 h after CdCl2 (3 mg/kg b.w., i.p.)

Question: For “Eps8 (epidermal growth factor receptor pathway substrate 8) (from UniProt Q08509 1-821)”, which binding is on record?
Answer: Its binding is “binds”.

Question: Which binding does the source give for annexin A2 (from UniProt P07356 1-339) here?
Answer: The binding was “binds”.

Question: Which binding does the source give for nectin-3 (from UniProt Q9JLB9 58-549) here?
Answer: The binding was “binds”.

Question: Which binding does the source give for β-catenin (from UniProt Q02248 1-781) here?
Answer: The binding was “binds”.

Question: How did the binding turn out when B1 was run?
Answer: Its binding is “binds”.

Question: Which binding does the source give for B2 here?
Answer: Its binding is “binds”.
